Some of the results follow.
These compounds were tested on T1, CTL2-GFP (C. trachomatis L2/434/Bu, GFP-expressing). Conditions: bulk GFP, single well; 28.5 h, 10 µM; inhibitor.
T1 construct: L2/434/Bu, GFP-expressing
Design: species or system HeLa; Intracellular C. trachomatis growth in HeLa cells, bulk GFP fluorescence relative to DMSO

Compound | % of control remaining
CC(C)(C)OC(=O)N1CCCC(c2nc3ccccc3cc2N)C1 (stereo not shown) [CBK284711] | 129.048%
CC(C)C(=O)Nc1ccc(-c2ccccc2)c2ccccc12 [CBK083731] | 64.1519%
O=S(=O)(c1ccc(F)cc1)N1CCCC1c1cccc(Cc2ccccc2)n1 (stereo not shown) [CBK286231] | 109.206%
O=C(O)/C=N/NC(=O)c1ccco1 [CBK260923] | 110.571%
CCCNc1nc(-c2ccc(SC)cc2)cn2ccnc12 [CBK066619] | 170.663%
CCOC(=O)c1ncoc1-c1ccc(Cl)cc1Cl [CBK020578] | 118.555%
C=CCNC(=O)Cn1cccc2cc(-c3ccc(OC)cc3)nc1-2 [CBK285348] | 153.034%
Cc1cc(C)n(CC(C)CNC(=O)NCCN2CCCCCC2=O)n1 (stereo not shown) [CBK305389] | 136.609%
Cc1csc(NC(=O)CN2CCOC(c3ccc(F)cc3)C2)n1 (stereo not shown) [CBK304703] | 99.1816%
COC(=O)c1c(NC(=O)CSc2nc[nH]n2)sc2c1CCCC2 [CBK267222] | 156.64%
CSc1ncc(Cl)c(C(=O)Nc2ccc(S(=O)(=O)N3CCOCC3)cc2)n1 [CBK268775] | 118.448%
Cc1ccc(-c2cc(=O)c3cc(OCC(=O)Nc4sc5c(c4C#N)CCCC5)ccc3o2)cc1 [CBK269062] | 161.302%
Cc1cc(NS(=O)(=O)c2ccc(Cl)c([N+](=O)[O-])c2)n(C)n1 [CBK067259] | 125.171%
CN(CC(=O)Nc1cnc(-c2ccc(F)cc2)c(-c2ccco2)n1)S(=O)(=O)c1ccccc1 [CBK037214] | 190.602%
COCCNC(=O)c1cnn2c(C)c(Cc3cccc(C#N)c3)c(C)nc12 [CBK162096] | 117.895%
Cc1noc(NS(=O)(=O)c2ccc(NC(=O)CCN3C(=O)c4ccccc4C3=O)cc2)c1C [CBK264091] | 17.0959%
S=C(NCCc1ccccc1)Nc1ccc2c(c1)OCCO2 [CBK267048] | 105.551%
O=C(Cc1ccccc1)N1CCN(c2ncccn2)CC1 [CBK144518] | 105.182%
N#CCCCN1CCC(Oc2cncc(OCc3ccc(Cl)c(Cl)c3)n2)C1 (stereo not shown) [CBK084436] | 35.9191%
NCC(O)CNC(=O)c1cc(-c2ccc(Cl)cc2)[nH]n1 (stereo not shown) [CBK160977] | 100%
O=C(COc1ccc(Br)cc1C(=O)O)NCCc1ccccc1 [CBK286796] | 119.935%
Cc1ccccc1NC(=O)Nc1cccc(F)c1 [CBK105831] | 117.883%

Retrieved one by one from above, two records:
Compound | % of control remaining
Cc1cc(NS(=O)(=O)c2ccc(Cl)c([N+](=O)[O-])c2)n(C)n1 [CBK067259] | 125.171%
O=C(COc1ccc(Br)cc1C(=O)O)NCCc1ccccc1 [CBK286796] | 119.935%

Reference: PMC12040169 (PLOS Biology, 2025)
